Test results taken from PubChem BioAssay AID2685 (National Center for Advancing Translational Sciences (NCATS), 2010).
The list shows a part of the results. Further columns of the screen follow, without active or inactive calls. Most of these compounds were active or inconclusive in the main read-out, so they are no random draw. The note in brackets gives the kind of curve behind each potency; many fits are weak.

Assay: qHTS Assay for Lipid Storage Modulators in Drosophila S3 Cells;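 as to cell number change: cells counted by Cell Tracker Red CMTPX staining in the red channel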
Details: BODIPY lipid droplet fluorescence, 18-24 h; for cell number change: measured here: cell count max response, cells fed with added oleic acid
Procedure, shortened: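 Drosophila S3 cells got compounds at several concentrations plus oleic acid (400 uM solution). Laser-scanning cytometry with 488 nm excitation read lipid droplets at 500-530 nm and cells at 575-640 nm. Percent activity was relative to 20 uM Triacsin C.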

[1] = measured here: cell number channel AC50, cells fed with added oleic acid
[2] = measured here: lipid fluorescence (Fed channel) AC50, cells fed with added oleic acid

SMILES	AC50 [1]	AC50 [2]	cell number change [%]
c1ccc(-c2nn3c(Cn4nnc5ccccc54)nnc3s2)nc1	2.31 µM [rising, partial curve]	0.651 µM [rising, single point]	–
c1cc2c(cc1Nc1nc(-c3ccc4c(c3)OCO4)cs1)OCCO2	0.731 µM [rising, partial curve, poor fit]	–	–
COc1ccc(C(=O)Nc2ccnc(-c3cccnc3)n2)cc1	–	–	37.1
O=C(N/N=C/c1cccc(Br)c1)C1CC(=O)N(c2ccccc2)C1 (centres undefined)	–	2.24 µM [falling, partial curve]	6.58
CCCCOc1ccc(C(=O)Nc2ccc(S(=O)(=O)Nc3onc(C)c3C)cc2)cc1	–	0.0731 µM [rising, partial curve, poor fit]	0.587
O/N=C1\CCCc2ccc(Cl)cc21	20.6 µM [falling, partial curve, poor fit]	–	-58.3
Cc1nnc(SCCn2c(N3CCCC(C)C3)nc3c2c(=O)[nH]c(=O)n3C)s1 (centres undefined)	–	6.51 µM [falling, single point]	-9.78
COc1cccc(N2CCN(C(=S)NCCc3ccccc3)CC2)c1	5.17 µM [rising, partial curve]	7.31 µM [rising, partial curve]	124
NS(=O)(=O)c1ccc(NS(=O)(=O)c2ccc(NC(=S)Nc3ccccc3)cc2)cc1	–	0.0651 µM [falling, full curve, poor fit]	-6.64
O=C(OCC(=O)N1CCOCC1)c1cccc(S(=O)(=O)Nc2ccc(F)cc2)c1	–	9.2 µM [falling, partial curve, poor fit]	-7.71
CCNC(=O)COC(=O)c1ccc(-c2nc3ccccc3s2)s1	–	5.17 µM [falling, partial curve]	–
O=C1C2C(C(=O)N1c1ccncc1)C1C=CC2C12CC2 (centres undefined)	–	–	-25.6
COc1ccc(OC)c(CNS(=O)(=O)c2c(C)nc3scc(C)n3c2=O)c1	–	29.1 µM [rising, single point]	-11.5
CCN(CC(=O)Nc1cc(Cl)ccc1C)C(=O)c1ccc(N2CCCC2=O)cc1	–	–	-1.04
COc1ccc(NC(=O)/C=C/c2ccc(OC(F)F)cc2)cn1	–	–	18.4
CC(=O)c1cccc(NC(=O)C(C)OC(=O)C2CCC2)c1 (centres undefined)	0.231 µM [falling, full curve]	–	-31.4
COc1ccc(N2CCN(C(=O)C3CCCN(S(=O)(=O)c4ccc(F)cc4)C3)CC2)cc1 (centres undefined)	–	29.1 µM [falling, single point]	-29.2
CCN(CC(=O)Nc1ccc2c(c1)OCCO2)C(=O)/C=C/c1ccc(F)cc1	11.6 µM [rising, partial curve]	16.4 µM [rising, single point]	53.8
CCOc1ccc(N2CC(C(=O)Nc3ccc(S(=O)(=O)Nc4nccs4)cc3)CC2=O)cc1 (centres undefined)	–	–	-23.1
O=S(=O)(c1cccc(S(=O)(=O)N2CCOCC2)c1)N1CCCCCC1	–	23.1 µM [falling, single point]	0.259

SMILES	AC50 [1]	AC50 [2]	cell number change [%]
COc1ccc(C(CNC(=O)c2nn(-c3ccccc3)c(=O)c3ccccc23)N2CCOCC2)cc1 (centres undefined)	–	4.11 µM [falling, single point]	-6
CN(C)c1ccc(/C=N/Nc2nc3ccccc3o2)cc1	–	29.1 µM [falling, single point]	-14.1
CC(=O)c1nccs1	–	10.3 µM [rising, single point]	-5.2
CCOC(=O)C1=C(C)N(CC(C)C)C(=O)C1	–	–	-12.1
O=C(CSc1nnc(CN2CCCC2)n1-c1ccc(F)cc1)c1ccc2c(c1)OCO2	6.51 µM [rising, single point]	–	–
CCN(CC)S(=O)(=O)c1ccc(N2CCCCC2)c(C(=O)Nc2ccccc2N2CCOCC2)c1	–	29.1 µM [falling, single point]	22
CC(C)C[C@@H](NC(=O)C1CCC(CNC(=O)[C@@H]2CCCN2C(=O)OC(C)(C)C)CC1)C(=O)O (some centres undefined)	–	–	20.6
CCOC(=O)c1cc(NC(=O)c2ccc(Cl)cc2)c(=O)oc1-c1ccccc1	–	3.66 µM [falling, full curve]	-28.5
Cc1ccc(N(NC(=O)C(O)(c2ccccc2)c2ccccc2)C(=O)CCl)cc1	–	7.31 µM [falling, partial curve]	-23.7
Cc1ccccc1N1CCN(CCC(=O)Nc2ccc(F)cc2)CC1	–	–	-10.9
CCc1ccccc1-n1nnnc1SCC(=O)Nc1cc(C)on1	1.46 µM [rising, partial curve]	–	7.26
COc1ccc(/C=C/C(=O)NC(=S)Nc2cc3oc4ccccc4c3cc2OC)cc1	29.1 µM [rising, single point]	–	33.3
O=C(NNC(=O)C(c1ccccc1)c1ccccc1)c1cccs1	1.64 µM [falling, partial curve]	1.84 µM [falling, partial curve]	-48.3
Cc1cc(NS(=O)(=O)c2ccc(Nc3nc(-c4sc(C)nc4C)cs3)cc2)no1	14.6 µM [rising, single point]	–	44.1
Cc1cccc(C)c1OCCCCN1CCNCC1	–	18.4 µM [rising, single point]	-8.24
COc1ccc(C2CC(c3ccccc3)=NN2C(=O)COC(=O)c2nc3nccc(C)n3n2)cc1 (centres undefined)	–	–	14.5
COc1ccc2nc(C)cc(NCc3ccc(F)cc3)c2c1	25.9 µM [rising, partial curve]	0.231 µM [falling, full curve, poor fit]	236
Cc1nn(-c2ccccc2)c2c1C1(C(=O)N(C)c3ccccc31)C(C#N)=C(N)O2 (centres undefined)	–	18.4 µM [falling, partial curve]	-25.8
Cc1ccc(C)c(-n2c(SCC(=O)NC(C(=O)O)C(C)C)nnc2-c2cccc(Cl)c2)c1 (centres undefined)	25.9 µM [falling, single point]	9.2 µM [falling, single point]	-48.7
O=C(NC1CC1)c1ccc(CSCc2ccccc2Cl)o1	–	0.13 µM [falling, full curve, poor fit]	-13.2

SMILES	AC50 [1]	AC50 [2]	cell number change [%]
COc1ccccc1C(=O)Nc1ccccc1N1CCN(C(=O)c2ccc(Cl)cc2)CC1	–	–	-1.05
O=C(NC(NNc1ccc([N+](=O)[O-])cc1)(C(F)(F)F)C(F)(F)F)c1ccccc1Cl	2.06 µM [rising, single point]	0.184 µM [rising, full curve, poor fit]	–
COc1ccc(/C=C/C(=O)OC(C)CN2CCOCC2)cc1 (centres undefined)	–	29.1 µM [falling, single point]	-20.3
O=C(Nc1ccccc1C(=O)NCCc1ccccc1)c1ccco1	4.11 µM [rising, single point]	4.11 µM [rising, single point]	10.7
Cc1cc(=O)[nH]c(/N=C(\N)Nc2ccc(SC(F)F)cc2)n1	0.00517 µM [rising, full curve, poor fit]	1.16 µM [rising, partial curve]	12.9
Cn1c(SCC(=O)NC(=O)NCc2ccccc2)nnc1C(F)(F)F	29.1 µM [rising, single point]	23.1 µM [rising, partial curve, poor fit]	38.5
CC(O)c1nc2ccccc2n1CC(=O)N1CCN(c2ccccc2)CC1 (centres undefined)	–	0.259 µM [rising, partial curve, poor fit]	6.72
Nc1nnc(SCC(=O)NNC(=O)c2ccc(F)cc2)s1	–	–	15.1
NC(=NCCc1c[nH]c2ccccc12)NC(=O)c1ccc(Cl)cc1	29.1 µM [falling, single point]	29.1 µM [falling, single point]	-43.3
CCCCCC(=O)NCC(C)NC(=O)CCCCC (centres undefined)	–	29.1 µM [falling, single point]	3.16
CCCCCn1c(=O)[nH]c2cc(C(=O)N3CCN(c4ccc(C(C)=O)cc4)CC3)ccc2c1=O	–	5.62 µM [rising, single point]	-3.95
NS(=O)(=O)c1ccc(-c2ccc(C=NC3CCS(=O)(=O)C3)o2)cc1 (centres undefined)	–	–	-1.61
O=C(NC1CC1)C1CC(=O)N(c2cccc(Cl)c2Cl)C1 (centres undefined)	–	5.8 µM [falling, single point]	17.8
COCCN1CCN(C(=O)c2ccc3nc(Cc4ccccc4F)oc3c2)CC1	–	13 µM [rising, partial curve, poor fit]	7.78
Cc1ccc(S(=O)(=O)N(CC(=O)Nc2ccc(Cl)c([N+](=O)[O-])c2)C2CCCCC2)cc1	–	29.1 µM [falling, single point]	-10.4
O=C(Cn1cc(/C=N/NC(=O)c2ccccc2Br)c2ccccc21)Nc1ccc(F)cc1	0.103 µM [falling, full curve, poor fit]	29.1 µM [falling, single point]	-36.5
COCCn1cnc2c1c(=O)n(CC(=O)OCC(=O)NCCCc1ccccc1)c(=O)n2Cc1ccccc1	0.58 µM [rising, partial curve, poor fit]	–	–
COc1ccccc1C(=O)NCCC(=O)NCCc1ccccc1	–	0.58 µM [rising, single point]	-15.7
Cc1nonc1C(=O)N1CCCC(N2CCN(c3ccc(F)cc3)CC2)C1 (centres undefined)	–	0.731 µM [rising, full curve]	13
Fc1ccc2c(c1)c1n[nH]c(=S)nc1n2CCc1ccccc1	–	0.116 µM [falling, full curve, poor fit]	-13.9

Quoted at random: three compounds from above
SMILES	AC50 [1]	AC50 [2]	cell number change [%]
Cc1ccc(S(=O)(=O)N(CC(=O)Nc2ccc(Cl)c([N+](=O)[O-])c2)C2CCCCC2)cc1	–	29.1 µM [falling, single point]	-10.4
CN(C)c1ccc(/C=N/Nc2nc3ccccc3o2)cc1	–	29.1 µM [falling, single point]	-14.1
Cn1c(SCC(=O)NC(=O)NCc2ccccc2)nnc1C(F)(F)F	29.1 µM [rising, single point]	23.1 µM [rising, partial curve, poor fit]	38.5
